We go through 16 substances from patent US8828401B2 (Pfizer Inc., priority 2011, dated 2014).

This data set can be described thus: general procedure: solution-phase peptide synthesis; HATU.
The mark [1] stands for this setting: late stage modification step, HPLC (Protocol A).
[2] abbreviates: late stage modification step, trifluoroacetic acid salt.
Setting [3] is: late stage modification step, over two steps.
The mark [4] stands for this setting: coupling step, HPLC (Protocol A).

Substance “N,2-dimethylalanyl-N-{(1S,2R)-4-{(2S)-2-[(1R,2R)-3-{[(1S)-1-carboxy-2-phenylethyl]amino}-1-methoxy-2-methyl-3-oxopropyl]pyrrolidin-1-yl}-2-methoxy-1-[(1S)-1-methylpropyl]-4-oxobutyl}-N-methyl-L-valinamide” yielded a step yield (coupling step) of 64%.
For the substance “N-[(9H-fluoren-9-ylmethoxy)carbonyl]-2-methylalanyl-N-{(3R,4S,5S)-1-[(2S)-2-{(3R,4R,7S)-7-benzyl-4-methyl-18-[(4S,5R)-5-methyl-2-oxoimidazolidin-4-yl}-5,8,13-trioxo-2-oxa-6,9,12-triazaoctadecan-3-yl}pyrrolidin-1-yl]-3-methoxy-5-methyl-1-oxoheptan-4-yl]-N-methyl-L-valinamide”, the step yield (coupling step) was found to be 27%.
Take “N-[(9H-fluoren-9-ylmethoxy)carbonyl]-2-methylalanyl-N-[(3R,4S,5S)-3-methoxy-1-{(2S)-2-[(1R,2R)-1-methoxy-3-{[(2S)-1-methoxy-1-oxo-3-phenylpropan-2-yl]amino}-2-methyl-3-oxopropyl]pyrrolidin-1-yl}-5-methyl-1-oxoheptan-4-yl]-N-methyl-L-valinamide”: the step yield (coupling step, over two steps) came to 88% over two steps.
With “1,2-dimethyl-L-prolyl-N-[(3R,4S,5S)-1-{(2S)-2-[(1R,2R)-3-{[(2S)-1-{[6-(2,5-dioxo-2,5-dihydro-1H-pyrrol-1-yl)hexyl]amino}-1-oxo-3-phenylpropan-2-yl]amino}-1-methoxy-2-methyl-3-oxopropyl]pyrrolidin-1-yl}-3-methoxy-5-methyl-1-oxoheptan-4-yl]-N-methyl-L-valinamide”, where the note is “conjugation step”, the conjugation yield came to 86%.
Where the note is “late stage modification step”, “2-methylalanyl-N-[(3R,4S,5S)-3-methoxy-1-{(2S)-2-[(1R,2R)-1-methoxy-2-methyl-3-oxo-3-{[(1S)-2-phenyl-1-(1,3-thiazol-2-yl)ethyl]amino}propyl]pyrrolidin-1-yl}-5-methyl-1-oxoheptan-4-yl]-N-methyl-L-valinamide” came in with a step yield of 75%. Further, the “final HPLC purity” value under setting [1] is listed as more than 97%.
With “2-methylalanyl-N-[(3R,4S,5S)-1-{(2S)-2-[(1R,2R)-3-{[(1S)-1-carboxy-2-phenylethyl]amino}-1-methoxy-2-methyl-3-oxopropyl]pyrrolidin-1-yl}-3-methoxy-5-methyl-1-oxoheptan-4-yl]-N-methyl-L-valinamide, trifluoroacetic acid salt”, the step yield under setting [2] amounted to 52%.
For the substance “2-methyl-L-prolyl-N-{(1S,2R)-4-{(2S)-2-[(1R,2R)-3-{[(1S)-1-benzyl-2-methoxy-2-oxoethyl]amino}-1-methoxy-2-methyl-3-oxopropyl]pyrrolidin-1-yl}-2-methoxy-1-[(1S)-1-methylpropyl]-4-oxobutyl}-N-methyl-L-valinamide”, the step yield (late stage modification step) amounted to 89%. In addition, the “final HPLC purity” value under setting [1] was more than 91%.
On to “N-[(3R,4S,5S)-1-{(2S)-2-[(1R,2R)-3-{[2-(cyclohepta-2,4,6-trien-1-yl)ethyl]amino}-1-methoxy-2-methyl-3-oxopropyl]pyrrolidin-1-yl}-3-methoxy-5-methyl-1-oxoheptan-4-yl]-N˜2˜-{[(3S)-3-fluoropyrrolidin-3-yl]carbonyl}-N-methyl-L-valinamide”, for which, for the setting “late stage modification step, HPLC Protocol T”, the “final HPLC purity” value is recorded as 100%. This substance yielded a step yield under setting [3] of 32% over two steps.
Consider “1,2-dimethyl-L-prolyl-N-[(3R,4S,5S)-3-methoxy-1-{(2S)-2-[(1R,2R)-1-methoxy-3-{[(2S)-1-methoxy-1-oxo-3-(1,2,3,4-tetrahydroquinolin-6-yl)propan-2-yl]amino}-2-methyl-3-oxopropyl]pyrrolidin-1-yl}-5-methyl-1-oxoheptan-4-yl]-N-methyl-L-valinamide”, for which the step yield (coupling step) stood at 44%. Moreover, the “final HPLC purity” value under setting [4] was determined as 100%.
“N-[(9H-fluoren-9-ylmethoxy)carbonyl]-2-methylalanyl-N-[(3R,4S,5S)-1-{(2S)-2-[(1R,2R)-2-carboxy-1-methoxypropyl]pyrrolidin-1-yl}-3-methoxy-5-methyl-1-oxoheptan-4-yl]-N-methyl-L-valinamide”: the step yield is listed as 83% (coupling step, run 1) and 92% (coupling step, run 2).
The substance “methyl N-{(2R,3R)-3-[(2S)-1-{(3R,4S,5S)-4-[{N-[(9H-fluoren-9-ylmethoxy)carbonyl]-L-valyl}(methyl)amino]-3-methoxy-5-methylheptanoyl}pyrrolidin-2-yl]-3-methoxy-2-methylpropanoyl}-L-phenylalaninate” showed a step yield (coupling step) of 62%. For the same substance, under setting [4], the “final HPLC purity” value is given as more than 97%.
Consider “3-methyl-D-isovalyl-N-{(1S,2R)-4-{(2S)-2-[(1R,2R)-3-{[(1S)-1-benzyl-2-methoxy-2-oxoethyl]amino}-1-methoxy-2-methyl-3-oxopropyl]pyrrolidin-1-yl}-2-methoxy-1-[(1S)-1-methylpropyl]-4-oxobutyl}-N-methyl-L-valinamide”, for which the step yield (coupling step) was determined as 69%.
As for “N-methyl-L-valyl-N-[(3R,4S,5S)-1-{(2S)-2-[(1R,2R)-3-{[(1S)-1-carboxy-2-phenylethyl]amino}-1-methoxy-2-methyl-3-thioxopropyl]pyrrolidin-1-yl}-3-methoxy-5-methyl-1-oxoheptan-4-yl]-N-methyl-L-valinamide, trifluoroacetic acid salt”, the step yield under setting [2] was 59%.
Consider “N,2-dimethylalanyl-N-{(1S,2R)-4-{(2S)-2-[(1R,2R)-3-{[(1R,2S)-2-hydroxy-1-methyl-2-phenylethyl]amino}-1-methoxy-2-methyl-3-oxopropyl]pyrrolidin-1-yl}-2-methoxy-1-[(1S)-1-methylpropyl]-4-oxobutyl}-N-methyl-L-valinamide, trifluoroacetic acid salt”, for which, under “coupling step, TFA salt”, the step yield came to 74%.
On to “2-methyl-L-prolyl-N-[(3R,4S,5S)-1-{(2S)-2-[(1R,2R)-3-{[(1S,2R)-1-hydroxy-1-phenylpropan-2-yl]amino}-1-methoxy-2-methyl-3-oxopropyl]pyrrolidin-1-yl}-3-methoxy-5-methyl-1-oxoheptan-4-yl]-N-methyl-L-valinamide, trifluoroacetic acid salt”, for which the “final HPLC purity” value (coupling step, HPLC (Protocol A), TFA salt) was more than 98%. In addition, the step yield (coupling step, TFA salt) is 86%.
As for “2-methyl-L-prolyl-N-[(3R,4S,5S)-1-{(2S)-2-[(1R,2R)-3-{[2-(cyclohepta-2,4,6-trien-1-yl)ethyl]amino}-1-methoxy-2-methyl-3-oxopropyl]pyrrolidin-1-yl}-3-methoxy-5-methyl-1-oxoheptan-4-yl]-N-methyl-L-valinamide, formic acid salt”, the “final HPLC purity” value (late stage modification step, HPLC Protocol U) is given as “purity >90%”. Under setting [3], the step yield is 57% over two steps.
